Results are given in words; binding and its absence hold for the method and conditions named. In cells and extracts the contact can be indirect. Some entries that bind do so weakly or less than the wild type. For some assays here: Where a sequence is shown, tags or fusion partners need not be part of it.
T1: Flag-XAF-1 (human) (UniProt Q6GPH4)
T1 sequence: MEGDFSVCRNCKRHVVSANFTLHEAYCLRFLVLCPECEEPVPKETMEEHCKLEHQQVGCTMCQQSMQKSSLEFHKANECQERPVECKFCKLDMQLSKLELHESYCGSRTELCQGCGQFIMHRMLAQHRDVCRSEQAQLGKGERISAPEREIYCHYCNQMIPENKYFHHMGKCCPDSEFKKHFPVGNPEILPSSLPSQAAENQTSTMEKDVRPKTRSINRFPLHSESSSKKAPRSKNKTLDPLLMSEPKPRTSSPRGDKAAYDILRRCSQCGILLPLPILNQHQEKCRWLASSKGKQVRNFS

Amino acid sequences for entries named in this document (tags omitted). A change or cut given only in a name is not applied to a line headed by its entry. Residues count along the entry.
UniProt P98170: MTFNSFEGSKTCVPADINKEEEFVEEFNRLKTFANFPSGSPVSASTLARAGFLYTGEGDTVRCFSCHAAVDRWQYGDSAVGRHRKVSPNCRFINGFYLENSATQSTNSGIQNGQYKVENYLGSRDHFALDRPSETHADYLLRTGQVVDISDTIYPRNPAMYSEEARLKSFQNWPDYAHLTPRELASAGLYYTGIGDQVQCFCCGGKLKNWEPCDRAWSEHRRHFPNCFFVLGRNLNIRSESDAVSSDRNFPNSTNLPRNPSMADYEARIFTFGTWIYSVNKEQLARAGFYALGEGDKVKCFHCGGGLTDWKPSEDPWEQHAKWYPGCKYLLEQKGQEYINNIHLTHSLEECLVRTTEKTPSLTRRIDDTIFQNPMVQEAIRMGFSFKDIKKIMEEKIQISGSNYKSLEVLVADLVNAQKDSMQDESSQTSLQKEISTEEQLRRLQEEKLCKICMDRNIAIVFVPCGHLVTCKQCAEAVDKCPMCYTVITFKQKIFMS
UniProt Q3U9F6: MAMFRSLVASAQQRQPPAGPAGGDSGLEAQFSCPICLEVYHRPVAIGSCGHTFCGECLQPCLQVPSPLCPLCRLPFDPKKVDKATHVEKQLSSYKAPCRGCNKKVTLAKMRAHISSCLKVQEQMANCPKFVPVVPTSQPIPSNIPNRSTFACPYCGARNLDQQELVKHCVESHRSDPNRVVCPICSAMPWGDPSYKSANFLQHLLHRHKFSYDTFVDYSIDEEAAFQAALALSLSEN
hRNF166 ΔC (1-199) (Q96A37, residues 1-199): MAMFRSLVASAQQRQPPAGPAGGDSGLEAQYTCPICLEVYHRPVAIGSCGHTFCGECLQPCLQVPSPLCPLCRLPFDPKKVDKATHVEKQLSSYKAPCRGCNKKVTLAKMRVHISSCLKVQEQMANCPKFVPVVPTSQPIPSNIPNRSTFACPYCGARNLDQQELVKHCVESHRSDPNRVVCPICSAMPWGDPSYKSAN
hRNF166 ΔN (110-237) (Q96A37, residues 110-237): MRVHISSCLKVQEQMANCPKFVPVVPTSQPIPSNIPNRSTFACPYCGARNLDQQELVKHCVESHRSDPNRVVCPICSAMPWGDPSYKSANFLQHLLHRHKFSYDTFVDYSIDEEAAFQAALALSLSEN


Columns and labels:
Flag-XIAP (human) [1] = molecular target: Flag-XIAP (human) (UniProt P98170); experiment: co-IP; domain mapping by co-immunoprecipitation (Supplementary Fig. 6A, B); cells and antibodies not told in the text shown
Flag-XIAP (human) [2] = molecular target: Flag-XIAP (human) (UniProt P98170); experiment: co-IP; MN9D cells transfected with V5-RNF166 and Flag-XIAP for 48 h, with or without 100 µM 6-OHDA for 9 h; immunoprecipitation with anti-Flag M2 affinity gel, immunoblot with anti-V5 and anti-Flag
Flag-XIAP (human) [3] = molecular target: Flag-XIAP (human) (UniProt P98170); experiment: co-IP; HEK293 cells transfected with tagged constructs alone or in combination (for XIAP and RNF166 also with co-expressed V5-XAF-1); lysed in RIPA buffer; immunoprecipitation with anti-Flag M2 affinity gel or anti-V5 antibody overnight at 4 °C, immunoblotting
Flag-XAF-1 (human) = molecular target: T1, Flag-XAF-1 (human); experiment: as above
GST-RNF166 (mouse) = GST-RNF166 (mouse) (UniProt Q3U9F6); experiment: pull-down; 30 µg purified GST-RNF166 on glutathione beads, 2 mg lysate of HEK293 cells overexpressing Flag-XAF-1, overnight at 4 °C; 25 mM Tris-HCl pH 7.5, 1 mM DTT, 30 mM MgCl2, 40 mM NaCl, 0.5% NP40; anti-Flag immunoblot; only the target purified

| binding (Flag-XIAP (human) [1]) | Molecule | other results |
| --- | --- | --- |
| binds | V5-RNF166 (from UniProt Q3U9F6 1-237) | binding (Flag-XIAP (human) [2]): binds; binding (Flag-XIAP (human) [3]): binds; binding (Flag-XAF-1 (human)): binds |
| binds | hRNF166 ΔC (1-199) (from UniProt Q96A37-1 1-199) (domain or fragment) |  |
| binds | hRNF166 ΔN (110-237) (from UniProt Q96A37-1 110-237) (domain or fragment) |  |
| binds | human RNF166 in pcDNA 3.1-V5 His (hRNF166, wild type) (from UniProt Q96A37-1 1-237) |  |
|  | Flag-XAF-1 (protein, UniProt Q6GPH4 1-301) MEGDFSVCRNCKRHVVSANFTLHEAYCLRFLVLCPECEEPVPKETMEEHCKLEHQQVGCTMCQQSMQKSSLEFHKANECQERPVECKFCKLDMQLSKLELHESYCGSRTELCQGCGQFIMHRMLAQHRDVCRSEQAQLGKGERISAPEREIYCHYCNQMIPENKYFHHMGKCCPDSEFKKHFPVGNPEILPSSLPSQAAENQTSTMEKDVRPKTRSINRFPLHSESSSKKAPRSKNKTLDPLLMSEPKPRTSSPRGDKAAYDILRRCSQCGILLPLPILNQHQEKCRWLASSKGKQVRNFS | binding (GST-RNF166 (mouse)): binds |
